Results taken from patent US6962712B2, “Cosmetic or dermatological composition comprising of a combination of an elastase inhibitor of the N-acylaminoamide family and at least one antifungal agent or at least one antibacterial agent” (L'Oreal, priority 2001, dated 2005).
At least one structure is not confirmed: it was looked up by name or label, or the drawing left a doubt.

What was measured:
[1] = biological target: T1, human leukocyte elastase (HLE) (Homo sapiens, UniProt P08246); assay: ex vivo: human skin fragments kept in survival 10 days with HLE, morphometry of elastin fibres (Example 5); conditions: three donors, mean; HLE 0.5 μg per ml + 5 μl of compound at 0.2% in ethanol every two days, 10 days at 37° C.; untreated 7.4%, HLE alone 5.1%
T1 sequence (P08246 30-267): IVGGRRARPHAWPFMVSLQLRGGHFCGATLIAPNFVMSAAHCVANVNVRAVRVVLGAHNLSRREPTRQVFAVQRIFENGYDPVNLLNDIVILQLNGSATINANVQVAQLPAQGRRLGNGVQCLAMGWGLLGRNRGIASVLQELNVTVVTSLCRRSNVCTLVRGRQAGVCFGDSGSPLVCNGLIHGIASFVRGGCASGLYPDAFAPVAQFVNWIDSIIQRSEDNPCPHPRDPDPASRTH

[2] = biological target: T1, human leukocyte elastase (HLE); assay: ex vivo: fresh sections of human skin treated with HLE for 2 hours at 20° C., morphometry of elastin fibres (Example 4)

## CC(=O)N(c1cccc(C(F)(F)F)c1)C(C(=O)NCC(=O)O)C(C)C (stereo not drawn) [Compound A, {2-[acetyl-(3-trifluoromethyl-phenyl)-amino]-3-methyl-butyrylamino}acetic acid]
[1]
  % surface occupied by elastin fibres: 7.1%
[2]; Skin 1, HLE 10 μg/ml + 0.1% test compound, untreated 12.7%, HLE alone 4.85%
  % surface occupied by elastin fibres: 13.95%
[2]; Skin 2, HLE 10 μg/ml + 0.1% test compound, untreated 15.25%, HLE alone 6.85%
  % surface occupied by elastin fibres: 11.85%
